PubChem BioAssay AID504791 – Drosophila RNAi Screening Center, 2011

- Screen: 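Genes whose knock-down strengthens or weakens small-RNA reporter silencing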 (primary screen)
- Cells: Drosophila S2-derived reporter cells
- Reagents: long dsRNA against Drosophila genes, about 150-250 ng dsRNA per well (siRNA assay); about 80-120 ng (miRNA assay)
- Duration: about 5 days (siRNA assay); about 4 days (miRNA assay)
- Conditions: copper sulfate induction of reporters: 25 µM (siRNA assay); 200 mM stated (miRNA assay), 1-2 days before reading
- Detection: 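Per-well ratio of Renilla over firefly light, expressed relative to that plate's average ratio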
- Units: stable assay Renilla, run 1 in luminescence; stable assay firefly, run 1 in luminescence
- Hit rule: 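a well was a first-pass pick when its plate-scaled ratio rose above 1.5 (siRNA assay) or 1.6 (miRNA assay), or dropped below 0.6; a gene counted only if two separate dsRNAs agreed on retest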
In all, the deposit lists about 23,000 reagents; shown is a random part of those with a known target gene and a result. Over the whole deposit, 199 (0.86%) were called active. 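Plate-scaled ratios behind the calls are not deposited; printed light signals are raw; many rows marked increased or decreased are still called inactive.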 The record does not give: the direction of the score.

With knock-down of Pgd [DRSC18697] the results were stable assay Renilla, run 1 = 7607; stable assay firefly, run 1 = 3.62e5; inactive.
With knock-down of trsn [DRSC06078] the results were stable assay Renilla, run 1 = 6852; stable assay firefly, run 1 = 4.25e5; inactive.
With knock-down of Prim2 [DRSC11610] the results were stable assay Renilla, run 1 = 8291; stable assay firefly, run 1 = 4.00e5; inactive.
With knock-down of Prestin [DRSC10507] the results were stable assay Renilla, run 1 = 7284; stable assay firefly, run 1 = 2.82e5; inactive.
Gr43a [DRSC06658] gave stable assay Renilla, run 1 = 6231; stable assay firefly, run 1 = 3.97e5; inactive.
With knock-down of Psn [DRSC11743] the results were stable assay Renilla, run 1 = 6683; stable assay firefly, run 1 = 4.33e5; inactive.
Against CG11267 [DRSC09833], the entry reads stable siRNA reporter change reporter ratio lowered past the hit cutoff; stable assay Renilla, run 1 = 7854; stable assay firefly, run 1 = 8.72e5; inactive.
For can [DRSC10664] the deposit lists stable assay Renilla, run 1 = 4492; stable assay firefly, run 1 = 3.62e5; inactive.
With knock-down of Dhc36C [DRSC03315], the record shows stable assay Renilla, run 1 = 6979; stable assay firefly, run 1 = 3.42e5; inactive.
CG32793 [DRSC18145] showed stable assay Renilla, run 1 = 6466; stable assay firefly, run 1 = 4.03e5; inactive.
CG32793 [DRSC18194] scored stable assay Renilla, run 1 = 5924; stable assay firefly, run 1 = 3.38e5; inactive.

2 entries from above, arranged by “stable assay Renilla, run 1”, descending:
CG11267 [DRSC09833]: stable siRNA reporter change = reporter ratio lowered past the hit cutoff; stable assay Renilla, run 1 = 7854; stable assay firefly, run 1 = 8.72e5; call = inactive
can [DRSC10664]: stable assay Renilla, run 1 = 4492; stable assay firefly, run 1 = 3.62e5; call = inactive

Next entries follow.
Against Slip1 [DRSC17146] the deposit lists stable assay Renilla, run 1 = 7231; stable assay firefly, run 1 = 3.69e5; inactive.
Depletion of MESR4 [DRSC06901] came out at: stable assay Renilla, run 1 = 8156; stable assay firefly, run 1 = 3.68e5; inactive.
After knock-down of CtsF [DRSC12056], the record shows stable assay Renilla, run 1 = 6436; stable assay firefly, run 1 = 4.14e5; inactive.
With knock-down of CtsF [DRSC12195], the record shows stable assay Renilla, run 1 = 8758; stable assay firefly, run 1 = 5.91e5; inactive.
CtsF [DRSC12196] showed stable assay Renilla, run 1 = 6090; stable assay firefly, run 1 = 4.24e5; inactive.
Obp56f [DRSC22270] gave stable assay Renilla, run 1 = 10031; stable assay firefly, run 1 = 7.58e5; inactive.
After knock-down of Tsp2A [DRSC18584] the results were stable assay Renilla, run 1 = 5402; stable assay firefly, run 1 = 3.20e5; inactive.
Silencing of CG13010 [DRSC19529] gave: stable assay Renilla, run 1 = 4547; stable assay firefly, run 1 = 3.70e5; inactive.
